Experimental data reported in patent publication US6149937A, “Liposome encapsulated amphiphilic drug compositions” (priority 1996, dated 2000).

Legend:
[1] = Entrapment of MP^0 into MLVs (encapsulation efficiency); type: physicochemical
[2] = in 1 hr, pH 7.4, 37° C., 2.8 mg entrapped

## CN1CC[C@]23c4c5ccc(O)c4O[C@H]2[C@@H](O)C=C[C@H]3[C@H]1C5 [MP^0]
[1]; EPC/MP^0 20:1, text
  encapsulation efficiency: about 80%
[1]; mole ratio 40 or higher until 100
  association efficiency: 35%
[2]
  drug concentration in the PBS medium: 6000 to 8000 ng/mL
